Results published in patent publication US20080108661A1, “Medicaments” (AstraZeneca AB, priority 2006, published 2008).

Experiments:
[1] = system: murine articular knee joint; conditions: all doses; comparable to basal levels of control samples (FIG. 1)
From the text: (iii) In Vivo Functional Validation of Histamine-Induced Responses Murine Articular Knee Joint
It is hypothesised that histamine released by trafficking mast cells or by the de novo synthesis of histamine by articular chondrocytes induces a H1-dependant increase in COX-2 mRNA expression and elevated PGE2 synthesis in synovial fibroblasts and articular chondrocytes. To evaluate the role of histamine in pathological processes in the joint, a pharmacodynamic mouse model was developed to investigate the effect of intra-articular injection (IAI) of histamine on joint swelling using calliper measurements, and measuring PGE2 and/or 11-6 levels from synovial knee joint ravages.
Adult C57B16 mice were dosed with either vehicle or test compound 1 hour prior to intra-articular injection of histamine (5 μmol). Swelling was induced by injection of 6 μl of histamine/saline suspension into the knee joint cavity under inhalation anaesthesia with isoflurane. Joint swelling was quantified by calliper measurements taken at 1, 6, 12, 24, 36 and 48 hr. Terminal synovial fluid knee lavages were sampled and levels of the inflammatory mediator I1-6 were measured in the fluid from synovial knee joint ravages.

[2] = system: human articular chondrocytes (HAC); conditions: 10 nM (FIG. 2)
[3] = system: human articular chondrocytes (HAC); conditions: 10 nM

Clc1ccc2c(c1)CCc1cccnc1C2=C1CCNCC1 [desloratadine]
inhibition of histamine-induced IL-6 release in joint lavage [1]: significantly inhibited
inhibition of histamine-induced PGE2 release [2]: inhibited
inhibition of histamine-induced increase in Cox2 mRNA expression [3]: inhibited
